{"source": "the supplement of paper PMC3334620", "note": "The full ranking holds about 33,000 sequences; the median of “E-score (-0.5 to 0.5)” is about -0.0059, and the highest 2% start at about 0.26. The list shows a part of the results."}
{"target": "T1, Cin5 (UniProt P40917)", "T1 sequence": "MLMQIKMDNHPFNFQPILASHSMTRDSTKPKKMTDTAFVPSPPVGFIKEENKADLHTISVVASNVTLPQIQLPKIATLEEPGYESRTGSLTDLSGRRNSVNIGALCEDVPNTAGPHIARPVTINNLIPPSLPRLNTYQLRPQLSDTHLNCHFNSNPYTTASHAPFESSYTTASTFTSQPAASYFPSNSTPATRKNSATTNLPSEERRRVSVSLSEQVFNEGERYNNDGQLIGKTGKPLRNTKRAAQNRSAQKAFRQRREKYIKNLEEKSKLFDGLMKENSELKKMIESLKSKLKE", "assay": "PBM E-score (8-mer binding enrichment) (E-score (-0.5 to 0.5)); higher = stronger / more preferred TF binding", "conditions": "protein concentration: 100 nM; construct: GST-full length", "outline": "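E-scores (a modified Wilcoxon-Mann-Whitney statistic) were assigned by the Universal PBM Analysis Suite to every ungapped eight-base word pooled with its reverse complement. The input came from universal all-10-mer Agilent arrays made double-stranded by primer extension and probed with GST-tagged yeast transcription factors at about 100-200 nM. Fluorescent anti-GST detected bound protein, and masliner normalised the scans.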"}
{"sequence": "GAAAATGC", "PBM E-score": -0.0017}
{"sequence": "GCAATGCA", "PBM E-score": -0.053}
{"sequence": "AGAGCCTG", "PBM E-score": -0.163}
{"sequence": "CCACCTGG", "PBM E-score": -0.258}
{"sequence": "ATTTGTGC", "PBM E-score": 0.00529}
{"sequence": "ATGTTTCG", "PBM E-score": 0.195}
{"sequence": "CGTGGTAA", "PBM E-score": -0.0555}
{"sequence": "TAAGGAGA", "PBM E-score": -0.122}
{"sequence": "ACCGCTAT", "PBM E-score": 0.0393}
{"sequence": "ATCCACCG", "PBM E-score": 0.0187}
{"sequence": "CCCTTGAA", "PBM E-score": -0.0161}
{"sequence": "CCTCTTTC", "PBM E-score": -0.118}
{"sequence": "GTCCACCA", "PBM E-score": -0.0928}
{"sequence": "GCGTGAGC", "PBM E-score": 0.072}
{"sequence": "CAGTTTGG", "PBM E-score": -0.0218}
{"sequence": "CATTACAC", "PBM E-score": 0.159}
{"sequence": "GGTTCTAA", "PBM E-score": 0.0807}
{"sequence": "CGATATGC", "PBM E-score": 0.0862}
{"sequence": "CTCTAACA", "PBM E-score": -0.0488}
{"sequence": "AAGTGGCG", "PBM E-score": 0.198}
{"sequence": "CTGAAGGA", "PBM E-score": -0.105}
{"sequence": "CATTCTGG", "PBM E-score": 0.0333}
{"sequence": "AGTAGTCC", "PBM E-score": 0.0913}
{"sequence": "CTCTAGTA", "PBM E-score": 0.0297}
{"sequence": "AATTCTTC", "PBM E-score": 0.0767}
{"sequence": "ACCACGAT", "PBM E-score": 0.161}
{"sequence": "GCTCGTGA", "PBM E-score": 0.00773}
{"sequence": "ACCCACCA", "PBM E-score": 0.0938}
{"sequence": "CATCCGGA", "PBM E-score": 0.0595}
{"sequence": "ATGTCGAA", "PBM E-score": -0.0258}
{"sequence": "GGGGCGGA", "PBM E-score": -0.142}
{"sequence": "TACACTCA", "PBM E-score": 0.0959}
{"sequence": "AATGAATG", "PBM E-score": 0.234}
{"sequence": "CTAAAACA", "PBM E-score": 0.0143}
{"sequence": "AGACTCAA", "PBM E-score": -0.143}
{"sequence": "CATTAGAG", "PBM E-score": -0.115}
{"sequence": "CTTAGAAC", "PBM E-score": -0.0472}
{"sequence": "CCTCGGTC", "PBM E-score": -0.249}
{"sequence": "TGTTTTAA", "PBM E-score": 0.117}
{"sequence": "CGAATGGA", "PBM E-score": 0.0967}
{"sequence": "CATACACA", "PBM E-score": 0.0703}
{"sequence": "AATTAAAA", "PBM E-score": 0.0759}
{"sequence": "ACGTTTAC", "PBM E-score": -0.0238}
{"sequence": "ATTCCCGA", "PBM E-score": 0.0531}
{"sequence": "GAGAAAGA", "PBM E-score": 0.136}
{"sequence": "TCTAGGAA", "PBM E-score": -0.0991}
{"sequence": "CGAAAACC", "PBM E-score": -0.0599}
{"sequence": "AATATTAT", "PBM E-score": 0.343}
{"sequence": "CGTTAACC", "PBM E-score": 0.0331}
{"sequence": "GACTGAAA", "PBM E-score": -0.0204}
{"sequence": "AGCCATCA", "PBM E-score": 0.131}
{"sequence": "AGATACTA", "PBM E-score": 0.0732}
{"sequence": "AGGCCCTA", "PBM E-score": -0.228}
{"sequence": "GAACAGCC", "PBM E-score": -0.205}
{"sequence": "ACATTCGG", "PBM E-score": 0.11}
{"sequence": "AGAGTCAC", "PBM E-score": -0.196}
{"sequence": "ACTAGTAA", "PBM E-score": 0.205}
{"sequence": "CACTTGGA", "PBM E-score": 0.0127}
{"sequence": "CAGGTAGG", "PBM E-score": -0.0808}
{"sequence": "TGACTACA", "PBM E-score": -0.0081}
{"sequence": "AACCATAC", "PBM E-score": 0.0146}
{"sequence": "CAACTGCG", "PBM E-score": -0.12}
{"sequence": "CTCCCTCC", "PBM E-score": -0.137}
{"sequence": "GAGCAAAA", "PBM E-score": -0.0887}
{"sequence": "ATCCAGGA", "PBM E-score": 0.0322}
{"sequence": "CACTACGC", "PBM E-score": -0.239}
{"sequence": "TGGATCCA", "PBM E-score": -0.0145}
{"sequence": "GGCGAAAC", "PBM E-score": 0.0435}
{"sequence": "GTAGATGA", "PBM E-score": 0.146}
{"sequence": "GATCCCAC", "PBM E-score": 0.143}
{"sequence": "ATTTGCGC", "PBM E-score": 0.0411}
{"sequence": "AGTGTTAT", "PBM E-score": 0.165}
{"sequence": "AATCTTAG", "PBM E-score": 0.0668}
{"sequence": "AAAGAGGG", "PBM E-score": -0.118}
{"sequence": "AGCGCTAC", "PBM E-score": -0.238}
{"sequence": "CTGCCATA", "PBM E-score": 0.11}
{"sequence": "AGCATATC", "PBM E-score": 0.117}
{"sequence": "GCGTTTGA", "PBM E-score": -0.0954}
{"sequence": "AATATTGT", "PBM E-score": 0.28}
{"sequence": "AATCTAAC", "PBM E-score": 0.0851}
{"sequence": "TAACCATA", "PBM E-score": 0.0856}
{"sequence": "ACTACGTA", "PBM E-score": 0.169}
{"sequence": "ACACCATA", "PBM E-score": 0.0793}
{"sequence": "CCCATCTA", "PBM E-score": 0.0302}
{"sequence": "ATGATCCA", "PBM E-score": -0.0422}
{"sequence": "CTACGTGA", "PBM E-score": -0.0669}
{"sequence": "CCCGAGAG", "PBM E-score": -0.214}
{"sequence": "CCCAACTA", "PBM E-score": 0.245}
{"sequence": "AATTCGCC", "PBM E-score": 0.154}
{"sequence": "ATAGCTGC", "PBM E-score": 0.145}
{"sequence": "GCGGGCAA", "PBM E-score": 0.0765}
{"sequence": "CATTCGTC", "PBM E-score": 0.0974}
{"sequence": "CTAAGTCA", "PBM E-score": 0.0222}
{"sequence": "GGTTGGCA", "PBM E-score": -0.177}
{"sequence": "CGCGGTCA", "PBM E-score": 0.00133}
{"sequence": "ACTTACAG", "PBM E-score": 0.0272}
{"sequence": "GAACCTAC", "PBM E-score": -0.0937}
{"sequence": "ACATCGGG", "PBM E-score": -0.00315}
{"sequence": "ACTTAGTA", "PBM E-score": 0.188}
{"sequence": "AAGCCTGA", "PBM E-score": -0.129}
{"sequence": "GTACTAGA", "PBM E-score": 0.0607}
{"sequence": "GCTGACAA", "PBM E-score": 0.203}
{"sequence": "AAAATCCC", "PBM E-score": -0.0252}
{"sequence": "CTTGCAAC", "PBM E-score": 0.125}
{"sequence": "GCCGCAAC", "PBM E-score": -0.0358}
{"sequence": "ATACAGAG", "PBM E-score": 0.0186}
{"sequence": "AGTACGTG", "PBM E-score": -0.096}
{"sequence": "GGTGCCCA", "PBM E-score": -0.207}
{"sequence": "ATCAACGC", "PBM E-score": -0.0375}
{"sequence": "AGAAGAAG", "PBM E-score": -0.101}
{"sequence": "CTCAGGCA", "PBM E-score": 0.0255}
{"sequence": "CCAGCTAG", "PBM E-score": -0.202}
{"sequence": "CCTGTGCC", "PBM E-score": -0.219}
{"sequence": "GATAGCGA", "PBM E-score": 0.0136}
{"sequence": "ATACCGCA", "PBM E-score": 0.00556}
{"sequence": "CTGGTCCA", "PBM E-score": -0.0813}
{"sequence": "AATACGAT", "PBM E-score": 0.13}
{"sequence": "CCGATGCA", "PBM E-score": 0.0504}
{"sequence": "CCGGATCA", "PBM E-score": 0.11}
{"sequence": "GTTGGCGA", "PBM E-score": -0.0854}
{"sequence": "CTCTACTA", "PBM E-score": 0.064}
{"sequence": "ATACAGGG", "PBM E-score": 0.121}
{"sequence": "CAGTCTCG", "PBM E-score": -0.225}
{"sequence": "ATACGCGA", "PBM E-score": -0.0925}
{"sequence": "ACCGTTGA", "PBM E-score": -0.128}
{"sequence": "CTGACCCC", "PBM E-score": -0.247}
{"sequence": "ACACTTAT", "PBM E-score": 0.0573}
{"sequence": "CACTTCAG", "PBM E-score": -0.102}
{"sequence": "ACCGTACT", "PBM E-score": 0.0396}
{"sequence": "AATCCTCT", "PBM E-score": -0.142}
{"sequence": "CAGGCGGC", "PBM E-score": -0.168}
{"sequence": "CATATCGA", "PBM E-score": 0.138}
{"sequence": "GGTTGGGA", "PBM E-score": -0.0704}
{"sequence": "CTCAACAC", "PBM E-score": 0.0856}
{"sequence": "AACACAGC", "PBM E-score": 0.205}
{"sequence": "CGGCTTGC", "PBM E-score": 0.0619}
{"sequence": "ATCTATAC", "PBM E-score": 0.131}
{"sequence": "CCACTCCC", "PBM E-score": -0.0617}
{"sequence": "GACATCAA", "PBM E-score": 0.235}
{"sequence": "CTCCCGCA", "PBM E-score": -0.069}
{"sequence": "GGTAGTAC", "PBM E-score": -0.0268}
{"sequence": "ACCCACCC", "PBM E-score": 0.323}
{"sequence": "AGAAAGCA", "PBM E-score": 0.192}
{"sequence": "TGAAAACA", "PBM E-score": 0.112}
{"sequence": "AACACAAG", "PBM E-score": -0.0154}
{"sequence": "ACTTGTGA", "PBM E-score": 0.101}
{"sequence": "AAGGTATG", "PBM E-score": 0.159}
{"sequence": "ATTCGAGA", "PBM E-score": -0.0222}
{"sequence": "GGAAGGAA", "PBM E-score": -0.06}
{"sequence": "AGTCCCTC", "PBM E-score": -0.24}
{"sequence": "GCCCGAAC", "PBM E-score": 0.0545}
{"sequence": "ACTCCGTC", "PBM E-score": 0.0828}
{"sequence": "AGCTAGCC", "PBM E-score": -0.0358}
{"sequence": "CCTCAACC", "PBM E-score": -0.198}
{"sequence": "AAGTGGGA", "PBM E-score": 0.177}
{"sequence": "CTCTCGGC", "PBM E-score": -0.143}
{"sequence": "AGGGCACA", "PBM E-score": 0.0508}
{"sequence": "GATCCTCA", "PBM E-score": 0.0179}
{"sequence": "AGCATGAT", "PBM E-score": 0.0431}
{"sequence": "GGGATCCC", "PBM E-score": -0.117}
{"sequence": "CAGTCTCA", "PBM E-score": -0.0104}
{"sequence": "ATGCCAGC", "PBM E-score": -0.093}
{"sequence": "AGTAACAT", "PBM E-score": 0.14}
{"sequence": "ATGGACGC", "PBM E-score": -0.0507}
{"sequence": "AGACGTAG", "PBM E-score": -0.00459}
{"sequence": "AAGGCCGA", "PBM E-score": -0.0702}
{"sequence": "ACCTACGC", "PBM E-score": 0.0255}
{"sequence": "CGCGAACG", "PBM E-score": -0.0651}
{"sequence": "AGCTGACC", "PBM E-score": 0.11}
{"sequence": "CGGCCTCC", "PBM E-score": -0.194}
{"sequence": "GAATAGGC", "PBM E-score": 0.065}
{"sequence": "AAACGATC", "PBM E-score": -0.0873}
